# The list shows only some results of the screen, not a fair sample: it is rich in T/C values a quarter to a half above the control, in often repeated tests (any T/C) and in doses without a T/C. Further doses and runs are listed elsewhere. T/C: endpoint of the treated group in % of that of the vehicle group. Some entries give survivors of the animals treated and no T/C: the source files T/C as zero there, which appears to mark a toxic dose or a test without result, not a measured value. Some survivor counts are full or nearly so, which does not show that the dose was tolerated: the source hardly ever lists a survival T/C far under the control, and the zero likely stands for such cases as well. Counts of survivors are from the toxicity check (mostly the fifth day) where no day follows; animals may have died later. Schedule codes are those of the source, read here as Q, the interval in days (D) or hours (H), X, the number of doses. Some doses were run more than once; the results are listed from low to high. For survival time, this PubChem deposit counts one and a half times the control or more as active, and values a quarter to a half above the control carry no call in these data; other NCI protocols may use other cut-offs.
# Test system: L1210 leukemia ip in BDF1 mice, survival T/C
# Experiment: NCI In Vivo Anticancer Drug Screen. Data for tumor model L1210 Leukemia (intraperitoneal) in B6D2F1 (BDF1) mice
# Conditions: T/C endpoint: mean survival time, higher T/C = longer survival
# [1] = dose: 200.0 mg/kg/injection, schedule: Q01DX009 (ip), vehicle: saline with Tween-80
# [2] = dose: 400.0 mg/kg/injection, schedule: Q01DX009 (ip), vehicle: Klucel (hydroxypropylcellulose) (HPC)
# [3] = dose: 200.0 mg/kg/injection, schedule: Q01DX009 (ip), vehicle: Klucel (hydroxypropylcellulose) (HPC)
structure (smiles),measurement,setting,value
Nc1nc(Cl)c2[nH]cnc2n1,T/C,"dose: 1.8 mg/kg/injection, schedule: Q01DX009 (ip), vehicle: saline with Tween-80",130 % of control
same,T/C,"dose: 2.0 mg/kg/injection, schedule: Q01DX009 (ip), vehicle: saline with Tween-80",125 % of control
same,T/C,"dose: 4.0 mg/kg/injection, schedule: Q01DX009 (ip), vehicle: saline with Tween-80",138 and 149 % of control
same,T/C,"dose: 4.4 mg/kg/injection, schedule: Q01DX009 (ip), vehicle: saline with Tween-80",129 % of control
same,T/C,"dose: 6.6 mg/kg/injection, schedule: Q01DX009 (ip), vehicle: saline with Tween-80",138 % of control
same,T/C,"dose: 10.0 mg/kg/injection, schedule: Q01DX009 (ip), vehicle: saline with Tween-80",147 % of control
same,T/C,"dose: 13.3 mg/kg/injection, schedule: Q04DX003 (ip), vehicle: saline with Tween-80",140 % of control
same,T/C,"dose: 15.0 mg/kg/injection, schedule: Q01DX009 (ip), vehicle: saline with Tween-80",138 % of control
same,T/C,"dose: 20.0 mg/kg/injection, schedule: Q04DX003 (ip), vehicle: saline with Tween-80",135 % of control
same,T/C,"dose: 26.6 mg/kg/injection, schedule: Q04DX003 (ip), vehicle: saline with Tween-80",143 % of control
same,T/C,"dose: 40.0 mg/kg/injection, schedule: Q04DX003 (ip), vehicle: saline with Tween-80",146 % of control
same,T/C,"dose: 50.0 mg/kg/injection, schedule: Q01DX009 (ip), vehicle: saline with Tween-80",131 % of control
same,T/C,"dose: 60.0 mg/kg/injection, schedule: Q04DX003 (ip), vehicle: saline with Tween-80",144 % of control
same,T/C,"dose: 90.0 mg/kg/injection, schedule: Q04DX003 (ip), vehicle: saline with Tween-80",133 % of control
same,T/C,"dose: 100.0 mg/kg/injection, schedule: Q01DX009 (ip), vehicle: saline with Tween-80",127 % of control
same,T/C,[1],125 % of control
same,survivor count,[1],5 of 6
same,survivor count,"dose: 300.0 mg/kg/injection, schedule: Q04DX009 (ip), vehicle: Klucel (hydroxypropylcellulose) (HPC)",6 of 6
O=C(Nc1ccc([N+](=O)[O-])cc1Cl)SCc1ccccc1,survivor count,[2],2 of 3 and 5 of 6
N#CC12OC1(C#N)C(=O)C1(Cl)C3C=CC(C3)C1(Cl)C2=O (configuration not stated),survivor count,"dose: 100.0 mg/kg/injection, schedule: Q01DX009 (ip), vehicle: saline",0 of 3
same,survivor count,"dose: 200.0 mg/kg/injection, schedule: Q01DX009 (ip), vehicle: saline",0 of 3
COc1cc(OC)c(NC(=O)c2ccc([N+](=O)[O-])s2)cc1Cl,survivor count,"dose: 400.0 mg/kg/injection, schedule: Q01DX005 (ip), vehicle: saline",2 of 4
CCCCOC(=O)CC(=O)OCCCC,survivor count,[3],3 of 6
O=S(=O)(Oc1cccc(C(F)(F)F)c1)c1cccc(C(F)(F)F)c1,survivor count,"dose: 100.0 mg/kg/injection, schedule: Q04DX003 (ip), vehicle: Klucel (hydroxypropylcellulose) (HPC)",5 of 6
same,survivor count,"dose: 400.0 mg/kg/injection, schedule: Q04DX003 (ip), vehicle: Klucel (hydroxypropylcellulose) (HPC)",6 of 6
CC1(Cl)C(=O)NC(=O)C1Cl (configuration not stated),survivor count,"dose: 12.5 mg/kg/injection, schedule: Q01DX009 (ip), vehicle: saline",6 of 6
same,survivor count,"dose: 100.0 mg/kg/injection, schedule: Q04DX003 (ip), vehicle: saline",3 of 6
same,survivor count,"dose: 200.0 mg/kg/injection, schedule: Q04DX003 (ip), vehicle: saline",0 of 6
same,survivor count,"dose: 400.0 mg/kg/injection, schedule: Q04DX003 (ip), vehicle: saline",0 of 6
O=C(O)c1cc(Cl)ccn1,survivor count,[3],6 of 6
same,survivor count,[2],0 of 6
Nc1ccc(N)cc1 (tested in a mixture with another compound),survivor count,"dose: 200.0 mg/kg/injection, schedule: Q01DX009 (ip), vehicle: DMSO",4 of 6
same,survivor count,"dose: 400.0 mg/kg/injection, schedule: Q04DX003 (ip), vehicle: DMSO",0 of 6
CCCCCCCCCCCCCCCCC1=NCCN1,survivor count,"dose: 10.0 mg/kg/injection, schedule: Q04DX003 (ip), vehicle: saline",6 of 6
same,survivor count,"dose: 75.0 mg/kg/injection, schedule: Q01DX001 (ip), vehicle: acetone",2 of 6
same,survivor count,"dose: 150.0 mg/kg/injection, schedule: Q01DX001 (ip), vehicle: acetone",0 of 6
same,survivor count,"dose: 300.0 mg/kg/injection, schedule: Q01DX001 (ip), vehicle: acetone",0 of 6
CN(CCS(=O)(=O)O)/N=C/c1ccc2c(c1)OCO2,survivor count,"dose: 200.0 mg/kg/injection, schedule: Q01DX001 (ip), vehicle: saline with Tween-80",6 of 6
same,survivor count,"dose: 400.0 mg/kg/injection, schedule: Q01DX001 (ip), vehicle: saline with Tween-80",6 of 6
CN(C)P(=O)(N(C)C)N(C)C.C[CH2][Ge]([CH2]C)[CH2]C.[Li].c1ccc(B(c2ccccc2)c2ccccc2)cc1,survivor count,"dose: 100.0 mg/kg/injection, schedule: Q04DX002 (ip), vehicle: saline with Tween-80",0 of 3
same,survivor count,"dose: 200.0 mg/kg/injection, schedule: Q04DX002 (ip), vehicle: saline with Tween-80",0 of 3
same,survivor count,"dose: 400.0 mg/kg/injection, schedule: Q04DX002 (ip), vehicle: saline with Tween-80",0 of 3

# — PubChem BioAssay AID248 (DTP/NCI, 2004)
